The list shows a part of the results. The main result of the screen is listed elsewhere. These columns were measured beside it and carry no call. The list favours compounds with an active or inconclusive main result. The note in brackets gives the kind of curve behind each potency; many fits are weak.
Assay: qHTS Assay for Modulators of Lamin A Splicing
Conditions: HeLa LMNA splicing GFP/RFP minigene ratio, 48 h
Method in brief: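 Read-out is the ratio of GFP to DsRed2 object intensity, acquired by 488 nm laser-scanning cytometry on HeLa lamin A-EGFP minigene reporter cells. Compound incubation 48 hrs at 37 °C in Opti-MEM with 2% FBS; DMSO 0.5% final.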

[1] = measured here: GFP splicing reporter channel
[2] = measured here: RFP viability control channel

SMILES | AC50 [1] | AC50 [2]
COC(=O)c1ccc(Cn2cnc3c(cnn3-c3ccc(C)c(C)c3)c2=O)o1 | 20 µM [rising, single point] | 22.4 µM [rising, single point]
Cc1nc2ccccc2n1CC(=O)N/N=C/c1cccs1 |  | 25.1 µM [rising, single point]
CC(C)Oc1ccc(C(=O)Nc2nnc3n2CCS3)cc1 |  | 17.8 µM [falling, partial curve, poor fit]
Cc1ccc(C)c(NC(=O)C2CCCN2C(=O)OC(C)(C)C)c1 (stereo not given) | 5.62 µM [rising, single point] | 5.62 µM [rising, single point]
S=C(Nc1ccc(Oc2ccccc2)cc1)NC1CCCCCC1 |  | 12.6 µM [rising, partial curve, poor fit]
C#CCNC(=O)c1ccc(OCc2ccccc2)cc1Cl | 31.6 µM [falling, partial curve] | 
Cc1ccc(OCC(=O)N2CC(C)OC(C)C2)c([N+](=O)[O-])n1 (stereo not given) | 0.794 µM [rising, full curve, poor fit] | 
COCCN(CCOC)S(=O)(=O)c1ccc(C(=O)NC2CCN(Cc3ccccc3)CC2)cc1 |  | 17.8 µM [rising, partial curve, poor fit]
O=C(Cn1cc(SCc2ccc(Cl)cc2)c2ccccc21)N1CCOCC1 |  | 31.6 µM [rising, single point]
COc1ccccc1OCC(=O)Nc1cc(S(=O)(=O)N2CCCCC2)ccc1N1CCCCC1 | 15.8 µM [rising, single point] | 17.8 µM [rising, partial curve]
CCOc1ccccc1NC(=O)CCN1CCN(S(=O)(=O)c2ccc(OC)cc2)CC1 |  | 6.31 µM [rising, full curve, poor fit]
Cc1nn(Cc2ccccc2Cl)c(C)c1NC(=O)c1ccn(C)n1 |  | 15.8 µM [rising, single point]
CCOC(=O)C[N+]1(C)CCN(C(C)=O)CC1 | 0.00355 µM [rising, full curve, poor fit] | 
Oc1[nH]c2ccccc2c1N=Nc1ccccc1F | 1.12 µM [rising, partial curve, poor fit] | 2.24 µM [rising, partial curve, poor fit]
O=C(NCc1cn(-c2ccccc2)nc1-c1ccc(F)cc1)c1cccc([N+](=O)[O-])c1 |  | 35.5 µM [rising, single point]
CC(=O)c1ccc(OCCCC(=O)Nc2cc(S(=O)(=O)N(C)C)ccc2C)cc1 |  | 12.6 µM [rising, partial curve, poor fit]

Individual results from the entries so far.
AC50 [1], `COC(=O)c1ccc(Cn2cnc3c(cnn3-c3ccc(C)c(C)c3)c2=O)o1` is entered as 20 µM [rising, single point]
AC50 [2], `O=C(Cn1cc(SCc2ccc(Cl)cc2)c2ccccc21)N1CCOCC1` is entered as 31.6 µM [rising, single point]
